In the supplement of paper PMC12823440, “Inhibitors supercharge kinase turnover through native proteolytic circuits” (Nature, 2025):
Counter-ions that a name gives are not always drawn. The list shows a part of the results. Hit calls seldom repeat between salt and free forms of one compound.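 Kinases were expressed as nanoluciferase fusions in K562 cells and luminescence was read every 4 h between 2 and 18 h as percent of control, DMSO set to 100% and a positive control to 0%. A time point counts as decreased when the signal drops significantly (2 sigma). The hit call is the authors' own, does not follow from the count of time points alone, and its rule is not shown.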

By UniProt entry, the sequences of proteins in these tests, tags left out. Where a name states a change or a piece, a line headed by the entry shows the natural chain unless it says otherwise.
UniProt O75460: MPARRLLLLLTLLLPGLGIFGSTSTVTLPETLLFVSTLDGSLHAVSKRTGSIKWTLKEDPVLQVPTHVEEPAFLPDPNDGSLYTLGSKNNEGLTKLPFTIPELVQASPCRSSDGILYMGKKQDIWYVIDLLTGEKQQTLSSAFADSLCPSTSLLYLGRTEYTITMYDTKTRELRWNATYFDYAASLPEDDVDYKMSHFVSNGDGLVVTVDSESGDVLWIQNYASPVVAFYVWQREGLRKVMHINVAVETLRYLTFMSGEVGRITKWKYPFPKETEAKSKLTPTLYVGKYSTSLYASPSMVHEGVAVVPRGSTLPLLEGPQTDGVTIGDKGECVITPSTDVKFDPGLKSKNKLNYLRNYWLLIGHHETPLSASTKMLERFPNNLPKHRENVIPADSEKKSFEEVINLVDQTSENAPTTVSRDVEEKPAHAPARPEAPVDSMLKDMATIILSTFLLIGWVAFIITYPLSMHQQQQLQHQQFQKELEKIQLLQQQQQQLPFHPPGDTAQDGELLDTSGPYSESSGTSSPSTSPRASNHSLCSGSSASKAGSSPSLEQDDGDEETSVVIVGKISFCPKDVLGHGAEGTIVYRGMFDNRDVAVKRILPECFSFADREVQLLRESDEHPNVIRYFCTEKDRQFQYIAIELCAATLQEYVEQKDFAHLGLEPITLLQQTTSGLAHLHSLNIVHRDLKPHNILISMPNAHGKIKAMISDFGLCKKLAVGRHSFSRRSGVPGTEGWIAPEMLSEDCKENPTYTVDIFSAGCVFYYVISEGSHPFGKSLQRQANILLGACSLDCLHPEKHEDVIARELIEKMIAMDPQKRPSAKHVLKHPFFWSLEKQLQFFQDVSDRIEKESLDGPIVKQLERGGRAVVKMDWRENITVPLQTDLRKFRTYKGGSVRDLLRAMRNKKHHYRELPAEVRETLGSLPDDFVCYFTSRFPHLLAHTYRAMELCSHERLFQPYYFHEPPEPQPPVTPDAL
UniProt P11362, whole entry, looked up: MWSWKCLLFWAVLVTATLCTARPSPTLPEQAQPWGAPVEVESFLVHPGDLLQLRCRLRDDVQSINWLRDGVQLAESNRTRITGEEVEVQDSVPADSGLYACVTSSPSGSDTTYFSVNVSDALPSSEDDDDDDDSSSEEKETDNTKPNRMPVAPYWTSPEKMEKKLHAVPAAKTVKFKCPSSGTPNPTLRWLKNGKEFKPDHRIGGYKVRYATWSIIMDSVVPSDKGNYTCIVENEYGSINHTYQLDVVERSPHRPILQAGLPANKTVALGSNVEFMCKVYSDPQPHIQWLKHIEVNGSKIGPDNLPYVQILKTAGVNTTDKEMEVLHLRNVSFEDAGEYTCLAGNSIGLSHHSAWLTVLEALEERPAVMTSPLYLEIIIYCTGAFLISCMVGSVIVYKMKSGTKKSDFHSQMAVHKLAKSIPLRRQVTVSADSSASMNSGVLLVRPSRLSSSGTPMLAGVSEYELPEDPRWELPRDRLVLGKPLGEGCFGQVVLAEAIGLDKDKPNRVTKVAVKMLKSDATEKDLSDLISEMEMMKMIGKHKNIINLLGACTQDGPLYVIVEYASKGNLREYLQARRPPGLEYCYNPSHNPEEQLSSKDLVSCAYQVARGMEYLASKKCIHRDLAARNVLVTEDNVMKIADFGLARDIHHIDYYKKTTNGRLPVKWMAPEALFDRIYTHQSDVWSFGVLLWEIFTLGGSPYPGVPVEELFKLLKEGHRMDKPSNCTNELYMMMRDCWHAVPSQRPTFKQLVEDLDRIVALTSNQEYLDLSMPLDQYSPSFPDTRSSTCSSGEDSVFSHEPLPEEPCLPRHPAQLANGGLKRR
UniProt P21802, whole entry, looked up: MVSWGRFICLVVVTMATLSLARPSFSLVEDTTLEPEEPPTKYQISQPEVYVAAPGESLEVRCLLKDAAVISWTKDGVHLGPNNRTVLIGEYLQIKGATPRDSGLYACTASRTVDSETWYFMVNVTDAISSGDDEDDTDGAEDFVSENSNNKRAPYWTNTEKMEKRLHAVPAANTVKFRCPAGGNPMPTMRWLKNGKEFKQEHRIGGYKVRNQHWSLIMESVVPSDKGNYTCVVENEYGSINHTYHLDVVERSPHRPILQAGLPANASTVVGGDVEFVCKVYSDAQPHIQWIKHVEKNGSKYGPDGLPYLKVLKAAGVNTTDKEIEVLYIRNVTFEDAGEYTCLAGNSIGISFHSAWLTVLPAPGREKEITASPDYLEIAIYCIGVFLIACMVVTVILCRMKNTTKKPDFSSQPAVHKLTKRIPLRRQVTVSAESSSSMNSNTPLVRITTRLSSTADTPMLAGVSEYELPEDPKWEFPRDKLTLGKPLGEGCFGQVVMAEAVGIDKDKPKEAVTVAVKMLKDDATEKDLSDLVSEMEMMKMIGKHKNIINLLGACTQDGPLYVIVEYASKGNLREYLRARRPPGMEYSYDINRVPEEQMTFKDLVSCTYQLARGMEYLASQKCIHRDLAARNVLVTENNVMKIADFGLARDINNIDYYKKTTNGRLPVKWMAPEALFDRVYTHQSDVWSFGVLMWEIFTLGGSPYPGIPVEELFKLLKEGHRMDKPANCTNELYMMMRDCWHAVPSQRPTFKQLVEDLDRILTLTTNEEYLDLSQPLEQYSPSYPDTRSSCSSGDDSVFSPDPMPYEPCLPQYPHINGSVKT
UniProt P06241, whole entry, looked up: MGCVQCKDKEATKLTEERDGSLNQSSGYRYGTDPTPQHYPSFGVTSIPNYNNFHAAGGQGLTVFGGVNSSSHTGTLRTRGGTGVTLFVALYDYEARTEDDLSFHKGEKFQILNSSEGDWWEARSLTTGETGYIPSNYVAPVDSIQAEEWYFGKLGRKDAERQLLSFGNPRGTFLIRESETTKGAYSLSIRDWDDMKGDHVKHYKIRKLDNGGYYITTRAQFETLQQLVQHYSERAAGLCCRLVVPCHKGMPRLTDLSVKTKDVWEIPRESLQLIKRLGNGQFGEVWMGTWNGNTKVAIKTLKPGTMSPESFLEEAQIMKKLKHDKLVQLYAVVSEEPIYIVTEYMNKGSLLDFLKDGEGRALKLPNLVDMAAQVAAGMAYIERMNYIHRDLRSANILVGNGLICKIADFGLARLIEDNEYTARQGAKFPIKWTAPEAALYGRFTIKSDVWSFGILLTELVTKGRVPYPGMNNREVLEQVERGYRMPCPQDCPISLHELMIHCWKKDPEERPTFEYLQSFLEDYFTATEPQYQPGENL
UniProt P49840: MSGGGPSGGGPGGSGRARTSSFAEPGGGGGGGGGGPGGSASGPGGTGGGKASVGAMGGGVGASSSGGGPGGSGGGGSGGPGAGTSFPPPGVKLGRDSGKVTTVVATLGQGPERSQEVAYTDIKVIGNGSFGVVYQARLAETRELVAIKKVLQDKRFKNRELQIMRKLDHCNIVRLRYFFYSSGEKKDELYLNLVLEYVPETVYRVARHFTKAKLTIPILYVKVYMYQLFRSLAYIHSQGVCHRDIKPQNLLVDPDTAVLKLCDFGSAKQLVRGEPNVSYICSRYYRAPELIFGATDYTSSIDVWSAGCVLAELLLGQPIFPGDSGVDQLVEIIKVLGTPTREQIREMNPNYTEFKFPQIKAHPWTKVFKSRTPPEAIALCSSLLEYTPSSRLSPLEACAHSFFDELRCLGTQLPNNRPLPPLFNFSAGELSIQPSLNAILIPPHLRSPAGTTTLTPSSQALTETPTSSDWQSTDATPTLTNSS
UniProt Q9Y616: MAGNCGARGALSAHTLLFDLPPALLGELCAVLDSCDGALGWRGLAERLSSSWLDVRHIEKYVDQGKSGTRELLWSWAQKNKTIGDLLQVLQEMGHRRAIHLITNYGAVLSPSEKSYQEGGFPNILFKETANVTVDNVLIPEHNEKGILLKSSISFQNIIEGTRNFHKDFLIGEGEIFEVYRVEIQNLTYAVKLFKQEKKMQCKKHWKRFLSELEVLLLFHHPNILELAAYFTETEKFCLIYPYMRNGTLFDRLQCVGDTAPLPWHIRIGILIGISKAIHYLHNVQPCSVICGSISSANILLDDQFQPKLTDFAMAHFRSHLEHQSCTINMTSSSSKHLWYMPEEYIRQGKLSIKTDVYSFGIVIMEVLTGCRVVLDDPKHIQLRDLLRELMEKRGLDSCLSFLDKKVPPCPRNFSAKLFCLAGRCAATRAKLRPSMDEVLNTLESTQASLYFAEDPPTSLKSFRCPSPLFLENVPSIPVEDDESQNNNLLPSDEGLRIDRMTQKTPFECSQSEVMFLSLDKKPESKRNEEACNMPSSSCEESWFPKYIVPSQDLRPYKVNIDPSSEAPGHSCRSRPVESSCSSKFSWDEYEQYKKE
UniProt P53671: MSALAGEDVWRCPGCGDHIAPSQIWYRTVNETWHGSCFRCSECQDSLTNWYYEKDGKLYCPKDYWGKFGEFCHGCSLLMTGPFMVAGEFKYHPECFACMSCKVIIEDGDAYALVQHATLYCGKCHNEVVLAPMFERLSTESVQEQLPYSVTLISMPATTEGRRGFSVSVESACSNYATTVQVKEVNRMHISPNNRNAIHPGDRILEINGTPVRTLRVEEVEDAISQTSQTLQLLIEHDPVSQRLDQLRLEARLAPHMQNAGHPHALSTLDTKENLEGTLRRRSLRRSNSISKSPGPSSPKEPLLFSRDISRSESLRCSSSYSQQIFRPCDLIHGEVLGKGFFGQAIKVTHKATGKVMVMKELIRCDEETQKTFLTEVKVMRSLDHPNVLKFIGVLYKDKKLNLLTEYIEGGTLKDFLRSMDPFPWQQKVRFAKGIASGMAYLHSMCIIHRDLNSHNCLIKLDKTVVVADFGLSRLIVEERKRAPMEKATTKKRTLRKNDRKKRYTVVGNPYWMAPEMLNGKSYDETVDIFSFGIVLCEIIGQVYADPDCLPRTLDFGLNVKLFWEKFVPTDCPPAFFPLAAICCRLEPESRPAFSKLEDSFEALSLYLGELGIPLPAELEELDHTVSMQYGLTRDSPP
UniProt P07948: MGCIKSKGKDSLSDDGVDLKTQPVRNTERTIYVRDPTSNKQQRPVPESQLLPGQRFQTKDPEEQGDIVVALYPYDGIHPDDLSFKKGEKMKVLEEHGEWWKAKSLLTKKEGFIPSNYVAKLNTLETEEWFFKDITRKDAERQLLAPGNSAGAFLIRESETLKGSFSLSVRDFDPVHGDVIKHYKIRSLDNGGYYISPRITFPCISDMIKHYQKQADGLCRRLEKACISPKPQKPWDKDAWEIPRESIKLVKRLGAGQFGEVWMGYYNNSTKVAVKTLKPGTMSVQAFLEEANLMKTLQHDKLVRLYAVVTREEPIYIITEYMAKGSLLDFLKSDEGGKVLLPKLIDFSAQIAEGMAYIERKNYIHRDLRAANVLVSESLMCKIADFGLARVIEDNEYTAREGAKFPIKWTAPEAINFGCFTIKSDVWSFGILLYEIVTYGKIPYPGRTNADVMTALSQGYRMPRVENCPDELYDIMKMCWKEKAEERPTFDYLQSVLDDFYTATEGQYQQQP
UniProt Q12851: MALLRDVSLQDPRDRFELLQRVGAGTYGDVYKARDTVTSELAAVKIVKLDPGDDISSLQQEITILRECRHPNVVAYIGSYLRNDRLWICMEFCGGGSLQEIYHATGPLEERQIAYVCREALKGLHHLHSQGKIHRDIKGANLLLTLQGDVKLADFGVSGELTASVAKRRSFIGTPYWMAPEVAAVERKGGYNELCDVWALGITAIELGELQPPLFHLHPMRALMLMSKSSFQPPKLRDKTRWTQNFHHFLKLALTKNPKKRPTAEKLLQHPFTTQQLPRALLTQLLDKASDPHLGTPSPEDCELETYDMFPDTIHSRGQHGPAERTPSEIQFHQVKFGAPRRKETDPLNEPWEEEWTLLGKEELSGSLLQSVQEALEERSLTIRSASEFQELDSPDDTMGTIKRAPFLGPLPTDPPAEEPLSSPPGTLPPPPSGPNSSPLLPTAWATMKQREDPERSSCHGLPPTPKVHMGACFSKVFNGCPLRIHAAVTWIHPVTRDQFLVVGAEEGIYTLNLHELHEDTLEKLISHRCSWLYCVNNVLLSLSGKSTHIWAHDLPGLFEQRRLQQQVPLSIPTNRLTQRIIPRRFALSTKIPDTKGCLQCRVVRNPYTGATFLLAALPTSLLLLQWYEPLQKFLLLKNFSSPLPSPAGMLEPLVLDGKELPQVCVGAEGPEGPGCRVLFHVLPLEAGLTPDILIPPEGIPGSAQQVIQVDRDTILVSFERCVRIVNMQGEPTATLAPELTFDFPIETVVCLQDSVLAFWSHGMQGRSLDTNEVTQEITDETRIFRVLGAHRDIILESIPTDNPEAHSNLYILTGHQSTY

Columns and labels:
Test in all cases: kinase-Nluc reporter destabilization hit call (1 = scored as downregulated) (binary); higher = compound decreases kinase abundance
Conditions in all cases: K562, 2-18 h
[1] = biological target: ERN1 (UniProt O75460)
[2] = biological target: FGFR1 (UniProt P11362)
[3] = biological target: FGFR2 (UniProt P21802)
[4] = biological target: FGFR3 (UniProt P22607)
[5] = biological target: FGR (UniProt P09769)
[6] = biological target: FLT3 (UniProt P36888)
[7] = biological target: FYN (UniProt P06241)
[8] = biological target: GSK3A (UniProt P49840)
[9] = biological target: HER2 (UniProt P04626)
[10] = biological target: INSRR (UniProt P14616)
[11] = biological target: IRAK3 (UniProt Q9Y616)
[12] = biological target: JAK1 (UniProt P23458)
[13] = biological target: LCK (UniProt P06239)
[14] = biological target: LIMK1 (UniProt P53667)
[15] = biological target: LIMK2 (UniProt P53671)
[16] = biological target: LMTK2 (UniProt Q8IWU2)
[17] = biological target: LYN (UniProt P07948)
[18] = biological target: MAP2K1 (UniProt Q02750)
[19] = biological target: MAP2K2 (UniProt P36507)
[20] = biological target: MAP4K2 (UniProt Q12851)

Measured: kinase-Nluc reporter destabilization hit call

C#Cc1cccc(Nc2ncnc3cc4c(cc23)OCCOCCOCCO4)c1 [Icotinib (Hydrochloride)]
inactive: [1]; 10 µM 0 | [2]; 10 µM 0 | [3]; 10 µM 0 | [4]; 10 µM 0 | [5]; 10 µM 0 | [6]; 10 µM 0 | [7]; 10 µM 0 | [8]; 10 µM 0 | [9]; 10 µM 0 | [10]; 10 µM 0 | [11]; 10 µM 0 | [12]; 10 µM 0 | [13]; 10 µM 0 | [14]; 10 µM 0 | [15]; 10 µM 0 | [16]; 10 µM 0 | [17]; 10 µM 0 | [18]; 10 µM 0 | [19]; 10 µM 0 | [20]; 10 µM 0

C[C@H](Nc1cc(-c2cnn(C)c2)cc(Nc2cnccn2)n1)c1ccc(F)cc1 [Ilginatinib]
inactive: [1]; 2.5 µM 0 | [2]; 2.5 µM 0 | [3]; 2.5 µM 0 | [4]; 2.5 µM 0 | [5]; 2.5 µM 0 | [6]; 2.5 µM 0 | [7]; 2.5 µM 0 | [8]; 2.5 µM 0 | [9]; 2.5 µM 0 | [10]; 2.5 µM 0 | [11]; 2.5 µM 0 | [12]; 2.5 µM 0 | [13]; 2.5 µM 0 | [14]; 2.5 µM 0 | [15]; 2.5 µM 0 | [16]; 2.5 µM 0 | [17]; 2.5 µM 0 | [18]; 2.5 µM 0 | [19]; 2.5 µM 0 | [20]; 2.5 µM 0

COc1cc2c(-c3cnn4cc(N5CCC(N6CCN(C)CC6)CC5)cnc34)ccnc2cc1F
inactive: [1]; 10 µM 0 | [2]; 10 µM 0 | [3]; 10 µM 0 | [4]; 10 µM 0 | [5]; 10 µM 0 | [6]; 10 µM 0 | [7]; 10 µM 0 | [8]; 10 µM 0 | [9]; 10 µM 0 | [10]; 10 µM 0 | [11]; 10 µM 0 | [12]; 10 µM 0 | [13]; 10 µM 0 | [14]; 10 µM 0 | [15]; 10 µM 0 | [16]; 10 µM 0 | [17]; 10 µM 0 | [18]; 10 µM 0 | [19]; 10 µM 0 | [20]; 10 µM 0

O=C(Nc1ccncc1)Nc1ccc(-c2nc(N3CCOCC3)nc(N3C4CCC3COC4)n2)cc1 [PKI-179 (hydrochloride)]
inactive: [1]; 2.5 µM 0 | [2]; 2.5 µM 0 | [3]; 2.5 µM 0 | [4]; 2.5 µM 0 | [5]; 2.5 µM 0 | [6]; 2.5 µM 0 | [7]; 2.5 µM 0 | [8]; 2.5 µM 0 | [9]; 2.5 µM 0 | [10]; 2.5 µM 0 | [11]; 2.5 µM 0 | [12]; 2.5 µM 0 | [13]; 2.5 µM 0 | [14]; 2.5 µM 0 | [15]; 2.5 µM 0 | [16]; 2.5 µM 0 | [17]; 2.5 µM 0 | [18]; 2.5 µM 0 | [19]; 2.5 µM 0 | [20]; 2.5 µM 0

N#CC[C@H](C1CCCC1)n1cc(-c2ncnc3[nH]ccc23)cn1 [Ruxolitinib]
inactive: [1]; 10 µM 0 | [2]; 10 µM 0 | [3]; 10 µM 0 | [4]; 10 µM 0 | [5]; 10 µM 0 | [6]; 10 µM 0 | [7]; 10 µM 0 | [8]; 10 µM 0 | [9]; 10 µM 0 | [10]; 10 µM 0 | [11]; 10 µM 0 | [12]; 10 µM 0 | [13]; 10 µM 0 | [14]; 10 µM 0 | [15]; 10 µM 0 | [16]; 10 µM 0 | [17]; 10 µM 0 | [18]; 10 µM 0 | [19]; 10 µM 0 | [20]; 10 µM 0

CC(C)Nc1cc(-c2c[nH]c(C(=O)N[C@H](CO)c3cccc(Cl)c3)c2)c(Cl)cn1 [Ulixertinib (hydrochloride)]
inactive: [1]; 10 µM 0 | [2]; 10 µM 0 | [3]; 10 µM 0 | [4]; 10 µM 0 | [5]; 10 µM 0 | [6]; 10 µM 0 | [7]; 10 µM 0 | [8]; 10 µM 0 | [9]; 10 µM 0 | [10]; 10 µM 0 | [11]; 10 µM 0 | [12]; 10 µM 0 | [13]; 10 µM 0 | [14]; 10 µM 0 | [15]; 10 µM 0 | [16]; 10 µM 0 | [17]; 10 µM 0 | [18]; 10 µM 0 | [19]; 10 µM 0 | [20]; 10 µM 0

COC(=O)[C@H](CC(C)C)NC(=O)c1ccc(NC[C@@H](N)CS)cc1-c1cccc2ccccc12 [GGTI298 (Trifluoroacetate)]
inactive: [1]; 10 µM 0 | [2]; 10 µM 0 | [3]; 10 µM 0 | [4]; 10 µM 0 | [5]; 10 µM 0 | [6]; 10 µM 0 | [7]; 10 µM 0 | [8]; 10 µM 0 | [9]; 10 µM 0 | [10]; 10 µM 0 | [11]; 10 µM 0 | [12]; 10 µM 0 | [13]; 10 µM 0 | [14]; 10 µM 0 | [15]; 10 µM 0 | [16]; 10 µM 0 | [17]; 10 µM 0 | [18]; 10 µM 0 | [19]; 10 µM 0 | [20]; 10 µM 0

Nc1ncnc2c1c(-c1ccc(Oc3ccccc3)cc1)nn2[C@@H]1CCCNC1 [IBT6A (hydrochloride)]
inactive: [1]; 2.5 µM 0 | [2]; 2.5 µM 0 | [3]; 2.5 µM 0 | [4]; 2.5 µM 0 | [5]; 2.5 µM 0 | [6]; 2.5 µM 0 | [7]; 2.5 µM 0 | [8]; 2.5 µM 0 | [9]; 2.5 µM 0 | [10]; 2.5 µM 0 | [11]; 2.5 µM 0 | [12]; 2.5 µM 0 | [13]; 2.5 µM 0 | [14]; 2.5 µM 0 | [15]; 2.5 µM 0 | [16]; 2.5 µM 0 | [17]; 2.5 µM 0 | [18]; 2.5 µM 0 | [19]; 2.5 µM 0 | [20]; 2.5 µM 0

Cn1ncc(Cl)c1-c1cc(C(=O)N[C@H](CN)Cc2cccc(F)c2)sc1Cl [Afuresertib (hydrochloride)]
inactive: [1]; 10 µM 0 | [2]; 10 µM 0 | [3]; 10 µM 0 | [4]; 10 µM 0 | [5]; 10 µM 0 | [6]; 10 µM 0 | [7]; 10 µM 0 | [8]; 10 µM 0 | [9]; 10 µM 0 | [10]; 10 µM 0 | [11]; 10 µM 0 | [12]; 10 µM 0 | [13]; 10 µM 0 | [14]; 10 µM 0 | [15]; 10 µM 0 | [16]; 10 µM 0 | [17]; 10 µM 0 | [18]; 10 µM 0 | [19]; 10 µM 0 | [20]; 10 µM 0
